{"sequences": {"note": "Chains of the proteins cited; added tags and fusions are not shown. Residues count along the entry.", "UniProt Q6UWB1, residues 33-636": "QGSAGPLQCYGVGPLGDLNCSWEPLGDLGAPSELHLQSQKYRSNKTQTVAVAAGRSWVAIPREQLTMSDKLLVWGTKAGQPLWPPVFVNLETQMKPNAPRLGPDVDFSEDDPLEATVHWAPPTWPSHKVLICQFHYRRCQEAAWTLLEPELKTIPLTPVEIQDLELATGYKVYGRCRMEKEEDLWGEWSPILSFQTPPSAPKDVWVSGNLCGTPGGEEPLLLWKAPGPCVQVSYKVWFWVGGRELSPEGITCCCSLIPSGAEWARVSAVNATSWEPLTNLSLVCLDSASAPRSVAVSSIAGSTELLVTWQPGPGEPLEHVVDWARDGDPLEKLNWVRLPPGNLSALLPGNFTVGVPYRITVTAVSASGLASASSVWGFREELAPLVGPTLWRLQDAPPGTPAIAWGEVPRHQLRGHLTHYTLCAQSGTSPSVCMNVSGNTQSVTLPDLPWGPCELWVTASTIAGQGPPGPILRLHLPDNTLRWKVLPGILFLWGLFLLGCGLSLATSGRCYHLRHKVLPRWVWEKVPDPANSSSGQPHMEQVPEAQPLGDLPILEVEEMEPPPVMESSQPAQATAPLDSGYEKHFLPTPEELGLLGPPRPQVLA"}, "source": "patent US8173771B2", "about": "“Humanin receptor or humanin-like polypeptide receptor” (Keio Univeristy, priority 2005, dated 2012)", "target": "T1, C-terminally V5-tagged human CNTF-R (V5-CNTF-R) (human) (UniProt P26992)", "T1 sequence (looked up)": "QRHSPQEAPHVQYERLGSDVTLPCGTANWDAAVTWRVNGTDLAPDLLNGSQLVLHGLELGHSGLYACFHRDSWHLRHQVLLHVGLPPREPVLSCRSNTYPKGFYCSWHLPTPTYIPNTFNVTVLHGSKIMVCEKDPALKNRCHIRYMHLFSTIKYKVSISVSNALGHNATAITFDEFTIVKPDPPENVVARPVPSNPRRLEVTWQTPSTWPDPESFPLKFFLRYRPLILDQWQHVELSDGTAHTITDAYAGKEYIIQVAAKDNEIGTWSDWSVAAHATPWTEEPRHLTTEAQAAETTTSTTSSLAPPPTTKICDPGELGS", "assay": "reciprocal co-immunoprecipitation from transfected COS7 cells, immunoblot", "note": "No constants are given. Whether binding was seen depends on the method and setting. In cells and extracts the contact can be indirect. Some results given as binding are weak or reduced against the parent protein; the word gives no strength. Sequences can lack the tags named with a protein.", "data": [{"substance": "C-terminally myc-tagged human WSX-1 (mycHis-WSX-1) (from UniProt Q6UWB1 33-636) (receptor)", "values": [{"measurement": "binding", "result": "binds"}]}]}
